Some of the results follow. The main result of the screen is listed elsewhere. These columns were measured beside it and carry no call. The list favours compounds with an active or inconclusive main result. The note in brackets gives the kind of curve behind each potency; many fits are weak.
Test: IkB Signaling
Settings: ABC-DLBCL IkBa-CBG/CBR dual luciferase ratio (green luciferase fused to IkBa over red control in OCI-Ly3 lymphoma cells), 4 h; measured here: control luc red channel unless noted
Summary of the method: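 Luminescence ratio of IκBα-fused green versus native red beetle luciferase in OCI-Ly3 cells, 4 h post-doxycycline with compound; red signal alone, scaled from basal (0%) to zero light (-100%), flagged nonspecific or cytotoxic effects.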
With `COc1ccc(-c2noc(CCCC(=O)Nc3cccc(Cl)c3C)n2)cc1` the AC50 was 0.794 µM [falling, partial curve].
In the case of `Cc1ccc(CN2CCSc3ccc(C(=O)NCc4ccc(OC(C)C)cc4)cc32)cc1`, the AC50 is reported as 0.00631 µM [falling, full curve, poor fit].
In the case of `O=C(Cn1c(=O)n(-c2ccc(F)cc2)c(=O)c2sc3ccccc3c21)NC1CCCC1`, the AC50 is reported as 15.8 µM [falling, partial curve].
In the case of `COc1ccc(-n2nc3ccc(NC(=O)c4c(OC)cccc4OC)cc3n2)cc1`, the AC50 is reported as 12.6 µM [rising, partial curve].
In the case of `Cc1cc(C)cc(NC(=O)C2CCCN(S(=O)(=O)c3cccc4nsnc34)C2)c1` (stereo not drawn), the AC50 is reported as 0.794 µM [falling, partial curve].
With `C[C@]12C=CC(=O)C=C1CC[C@@H]1[C@H]3C[C@@H](O)[C@](O)(C(=O)CO)[C@@]3(C)C[C@H](O)[C@]12F` the AC50 was 20 nM [rising, full curve] [measured here: IkB-luc green channel].
In the case of `CCOC(=O)c1c(C)[nH]c(C)c1S(=O)(=O)NCC(=O)Nc1ccc(C)cc1C`, the AC50 is reported as 6.31 µM [falling, single point].
With `COc1ccc(Cl)cc1N1C(=O)C2CCCN2C1c1sccc1C` (stereo not drawn) the AC50 was 31.6 µM [falling, partial curve].
With `COc1ccc(N(CC(=O)NC2CCCC2)C(=O)c2ccc(N3CCCCC3)nc2)cc1` the AC50 was 20 µM [falling, partial curve].
In the case of `COc1ccc(NC(=O)CSc2nc(-c3cccs3)cc(C(F)(F)F)n2)cc1Cl`, the AC50 is reported as 12.6 µM [falling, partial curve].
With `CCc1ccc(C(=O)CC2(O)C(=O)N(CCc3ccccc3)c3ccc(Br)cc32)cc1` (stereo not drawn) the AC50 was 25.1 µM [falling, partial curve].
For `CCc1c(C)sc2c1CCN(Cc1cccc(OC)c1)C2c1ccccc1` (stereo not drawn), the AC50 was 39.8 µM [falling, single point].
For `CCC1=Nc2cc(C(=O)NCCc3ccc(OC)c(OC)c3)ccc2Sc2ccccc21`, the AC50 was 39.8 µM [falling, single point].
In the case of `CCCCN(CCCC)CCNC(=O)Cn1nc(CC)n2c(cc3sccc32)c1=O`, the AC50 is reported as 25.1 µM [falling, single point].
In the case of `CCc1ccccc1S(=O)(=O)Cc1ccc(C(=O)NCc2ccc(Cl)cc2)o1`, the AC50 is reported as 15.8 µM [falling, partial curve].
With `Cc1ccc(CSC2=Nc3ccccc3C3=NC(CCC(=O)NC4CCCCC4)C(=O)N23)cc1` (stereo not drawn) the AC50 was 1.58 µM [rising, full curve, poor fit].
With `Cc1onc(-c2ccccc2Cl)c1C(=O)Nc1cccc(-c2cn3cccnc3n2)c1` the AC50 was 12.6 µM [falling, partial curve].
In the case of `CCn1cnc2c(=O)oc3ccc(S(=O)(=O)N4CCN(c5cc(C)ccc5C)CC4)cc3c21`, the AC50 is reported as 3.98 µM [falling, partial curve].
For `O=S(=O)(NCCc1ccc(Cl)cc1)c1ccc(N2CCCCS2(=O)=O)cc1`, the AC50 was 25.1 µM [falling, partial curve].
For `COc1ccc(C2=C(C)C(=O)N(Cc3ccc(C(=O)NCc4ccccc4C)cc3)S2(=O)=O)cc1`, the AC50 was 39.8 µM [falling, single point].
For `CCc1nc2ccccc2c(=O)n1NC(=O)c1c(O)c2cccc3c2n(c1=O)CCC3`, the AC50 was 12.6 µM [falling, partial curve].
With `CCOc1ccc(NC(=O)CCn2c(-c3ccc(F)cc3)cc(C(C)=O)c2C)cc1` the AC50 was 0.398 µM [falling, partial curve].
In the case of `CCN(C(=O)CCS(=O)(=O)c1ccc(Br)cc1)c1ccc2c(c1)OCO2`, the AC50 is reported as 25.1 µM [falling, single point].
With `CCCOc1ccc(C(=O)Nc2cc3nn(-c4ccc(CC)cc4)nc3cc2C)cc1` the AC50 was 2.51 µM [rising, full curve].
In the case of `O=C(CSc1nnc(-c2ccccc2)c(-c2ccccc2)n1)Nc1ccccc1Cl`, the AC50 is reported as 12.6 µM [falling, partial curve].
For `COc1ccccc1OCCCn1c(-c2ccc(Cl)cc2)nc2ccccc2c1=O`, the AC50 was 31.6 µM [falling, single point].
In the case of `Cc1ccc(-c2noc(CCC(=O)NCCCN3CCN(c4cccc(Cl)c4)CC3)n2)cc1`, the AC50 is reported as 3.98 µM [falling, partial curve].
For `CCC(C)Cn1c(COc2ccc(OC)cc2)nc2ccccc21` (stereo not drawn), the AC50 was 39.8 µM [falling, single point].
For `Cc1cc(C)c2cc(CN(CC3CCCO3)C(=O)NC3CCCCC3)c(=O)[nH]c2c1` (stereo not drawn), the AC50 was 31.6 µM [falling, partial curve].
With `CCOC(=O)c1ccc(NC(=O)Nc2cccc(OCc3cc(=O)n4ccc(C)cc4n3)c2)cc1` the AC50 was 39.8 µM [rising, single point].
For `COc1ccc(NC(=O)CCc2nc3cccnc3n2Cc2cccs2)c(OC)c1`, the AC50 was 3.16 µM [falling, partial curve, poor fit].
With `Cc1nnc(SCC(=O)Nc2ccc(Cl)cn2)n1Cc1ccccc1` the AC50 was 12.6 µM [falling, partial curve].
In the case of `Cc1ccc(CN2C(=O)SC(Nc3ccccc3)C2=O)cc1` (stereo not drawn), the AC50 is reported as 15.8 µM [falling, partial curve].
With `O=C1NC(=S)SC1=C1CCCCCC1` the AC50 was 1.58 µM [falling, full curve].
For `CC(C)CCSc1nc2c(c(=O)n(C)c(=O)n2C)n1Cc1ccccc1Cl`, the AC50 was 3.16 µM [falling, full curve].
For `O=C(C1CCN(S(=O)(=O)c2cccc3nonc23)CC1)N1CCN(c2ccc(F)cc2)CC1`, the AC50 was 20 µM [falling, partial curve].
With `Nc1nc(-c2cccs2)c(NC(=O)c2ccccc2)s1` the AC50 was 12.6 µM [falling, partial curve].
In the case of `CCOC(=O)c1c(C)oc2ncnc(Nc3ccc(CC)cc3)c12`, the AC50 is reported as 0.0126 µM [rising, full curve, poor fit].
In the case of `COc1ccc(/C=C/c2nc(-c3ccccc3O)n(-c3ccccc3)n2)cc1OC`, the AC50 is reported as 10 µM [falling, single point].
In the case of `COc1cc(N)c(Cl)cc1C(=O)N[C@H]1CCN(CCCOc2ccc(F)cc2)C[C@@H]1OC`, the AC50 is reported as 39.8 µM [falling, partial curve].
With `CC(=O)c1ccc(NC(=O)C(Cc2ccccc2)NS(=O)(=O)c2ccc3c(c2)CCC(=O)N3)cc1` (stereo not drawn) the AC50 was 12.6 µM [falling, partial curve].
For `CCOC(=O)Cc1c(C)nc2c(-c3ccc(OC)c(OC)c3)c(C)nn2c1C`, the AC50 was 0.316 µM [rising, partial curve, poor fit].
In the case of `Cc1cccc(C(=O)Nc2nnc(S(=O)(=O)N3CCC(C)CC3)s2)c1`, the AC50 is reported as 3.16 µM [falling, partial curve].
With `CN1CCN(C(=O)c2cc(-c3cccc(Cl)c3)on2)CC1` the AC50 was 12.6 µM [falling, partial curve].
In the case of `Cc1cccc(C)c1OCC(=O)Nc1cccc(NC(=O)c2ccco2)c1`, the AC50 is reported as 10 µM [falling, partial curve].
With `CC(=O)c1cccc(NC(=O)Cn2c(-c3cncs3)nc3ccccc32)c1` the AC50 was 3.16 µM [falling, partial curve].
In the case of `CCc1cccc(NC(=O)c2cc(S(=O)(=O)N3CCCCCC3)cn2C)c1`, the AC50 is reported as 7.94 µM [falling, full curve].
For `COc1ccccc1NC(=O)c1sc2nc(C)c(C(=O)Nc3ccc(Cl)cc3)c(-c3ccc(Br)cc3)c2c1N`, the AC50 was 6.31 µM [falling, partial curve].
In the case of `CC(C)(C)C(=O)NC1CC(=O)N(c2ccc3c(c2)OCCO3)C1` (stereo not drawn), the AC50 is reported as 1.58 µM [rising, full curve, poor fit].
In the case of `Cc1ccccc1CN1CCC(CNC(=O)c2cc3ccc4cccnc4c3[nH]2)CC1`, the AC50 is reported as 20 µM [falling, single point].
For `CN(C)c1ccnc2sc(C(=O)NCc3ccccc3)c(N)c12`, the AC50 was 31.6 µM [falling, single point].
For `CCc1ccc2oc(C(=O)Nc3nc(-c4ccc(F)cc4)ns3)c(C)c2c1`, the AC50 was 25.1 µM [falling, partial curve].
In the case of `CCOc1ccccc1CNC(=O)C1CCN(c2nnc(C)c3c(C)n(-c4ccc(C)cc4)nc23)CC1`, the AC50 is reported as 10 µM [falling, partial curve].
With `COC(=O)CCC/C=C1/SCC(NC(=O)c2ccccc2)C1O` (stereo not drawn) the AC50 was 3.98 µM [falling, partial curve].
In the case of `O=C(CC1(O)C(=O)N(CCc2ccccc2)c2ccc(Br)cc21)c1ccccc1` (stereo not drawn), the AC50 is reported as 15.8 µM [falling, partial curve].
With `CNC(=O)c1ccc(-c2nc(CN3CCc4ccccc43)c(C)o2)cc1` the AC50 was 0.126 µM [rising, full curve].
In the case of `COc1ccc(S(=O)(=O)N(Cc2nc(-c3ccccc3)no2)C2CCCCC2)cc1`, the AC50 is reported as 12.6 µM [falling, partial curve].
In the case of `CCSC1=C(C#N)C2(CCCC2)C(C#N)=C(N)N1`, the AC50 is reported as 25.1 µM [falling, single point].
In the case of `Fc1ccc(Nc2nc(SCc3ccc(Cl)cc3)nc3ccccc23)cc1`, the AC50 is reported as 39.8 µM [falling, single point].
In the case of `Cc1ccccc1C(=O)NCC(c1ccc(N(C)C)cc1)N1CCCC1` (stereo not drawn), the AC50 is reported as 0.501 µM [falling, full curve].
In the case of `Cc1cccc(-c2noc(-c3cccnc3NCc3ccccc3Cl)n2)c1`, the AC50 is reported as 25.1 µM [falling, partial curve].
For `CCc1ccccc1N1CC(c2nc3ccccc3n2CCCCOc2ccccc2OC)CC1=O` (stereo not drawn), the AC50 was 12.6 µM [falling, partial curve].
In the case of `O=C1CCc2cc(S(=O)(=O)NC(C(=O)Nc3ccc(F)cc3)c3ccccc3)ccc2N1` (stereo not drawn), the AC50 is reported as 10 µM [falling, partial curve].

Source: PubChem BioAssay AID445 (National Center for Advancing Translational Sciences (NCATS), 2006)
